Laboratory results as given in PMC13140519.
For at least one entry, the source does not settle the construct or the ends of the probe.

These sequences were tested on MBP-TaBZR1 (Triticum aestivum) (assay: EMSA). Conditions: 100 ng protein, LightShift Chemiluminescent EMSA kit binding buffer, 20 min, pH and temperature not stated, recombinant protein, protein details: MBP.

Sequence	binding result
GGCGACCGTGGGCACGTGACTGGGAGGGCGACCGTGGGCACGTGACTGGGAG (double strand) [TaATG8g-2B-Probe]	binds
GGGTGGCGTGTCGCGGCTGTATTGCGTGCACAACTCGGGTGGCGTGTCGCGGCTGTATTGCGTGCACAACTC (double strand) [TaATG8g-2A-Probe]	binds
AGAATTCATATGAACATTGTCGTGTGCAGAGTTTAGTGCATGTGAATGTTAGAATTCATATGAACATTGTCGTGTGCAGAGTTTAGTGCATGTGAATGTT (double strand) [TaATG8g-2D-Probe]	binds
